Source: paper PMC8226082
No constants are given. Whether binding was seen depends on the method and setting. Binding seen in cells or lysates may run through a third protein. Some entries that bind do so weakly or less than the wild type.

By UniProt entry, the sequences of proteins in these tests, tags left out.
UniProt Q9QX29: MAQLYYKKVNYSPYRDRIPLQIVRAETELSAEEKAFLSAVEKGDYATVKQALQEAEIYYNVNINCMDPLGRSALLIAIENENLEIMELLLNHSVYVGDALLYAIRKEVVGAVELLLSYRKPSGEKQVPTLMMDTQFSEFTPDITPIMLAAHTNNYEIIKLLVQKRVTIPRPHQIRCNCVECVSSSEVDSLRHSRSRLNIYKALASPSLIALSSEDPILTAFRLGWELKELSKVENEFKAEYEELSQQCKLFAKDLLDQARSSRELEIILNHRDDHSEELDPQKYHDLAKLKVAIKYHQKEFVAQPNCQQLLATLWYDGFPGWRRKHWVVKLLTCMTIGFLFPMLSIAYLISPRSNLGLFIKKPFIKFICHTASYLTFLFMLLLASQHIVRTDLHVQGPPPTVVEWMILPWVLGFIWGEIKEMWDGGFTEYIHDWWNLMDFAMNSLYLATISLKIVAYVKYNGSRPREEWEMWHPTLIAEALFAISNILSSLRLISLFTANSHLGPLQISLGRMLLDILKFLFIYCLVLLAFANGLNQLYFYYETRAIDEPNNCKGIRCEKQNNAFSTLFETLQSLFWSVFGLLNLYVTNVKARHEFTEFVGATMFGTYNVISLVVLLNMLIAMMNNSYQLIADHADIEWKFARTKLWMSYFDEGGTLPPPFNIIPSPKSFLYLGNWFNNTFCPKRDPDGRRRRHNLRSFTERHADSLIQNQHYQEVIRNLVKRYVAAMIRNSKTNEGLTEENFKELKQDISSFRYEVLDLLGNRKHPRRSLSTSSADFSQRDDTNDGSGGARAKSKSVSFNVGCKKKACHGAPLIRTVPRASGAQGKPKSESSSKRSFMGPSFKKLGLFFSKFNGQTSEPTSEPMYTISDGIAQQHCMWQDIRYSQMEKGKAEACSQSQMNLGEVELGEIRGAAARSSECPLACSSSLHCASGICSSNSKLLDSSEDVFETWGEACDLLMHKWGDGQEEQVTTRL
UniProt O88427: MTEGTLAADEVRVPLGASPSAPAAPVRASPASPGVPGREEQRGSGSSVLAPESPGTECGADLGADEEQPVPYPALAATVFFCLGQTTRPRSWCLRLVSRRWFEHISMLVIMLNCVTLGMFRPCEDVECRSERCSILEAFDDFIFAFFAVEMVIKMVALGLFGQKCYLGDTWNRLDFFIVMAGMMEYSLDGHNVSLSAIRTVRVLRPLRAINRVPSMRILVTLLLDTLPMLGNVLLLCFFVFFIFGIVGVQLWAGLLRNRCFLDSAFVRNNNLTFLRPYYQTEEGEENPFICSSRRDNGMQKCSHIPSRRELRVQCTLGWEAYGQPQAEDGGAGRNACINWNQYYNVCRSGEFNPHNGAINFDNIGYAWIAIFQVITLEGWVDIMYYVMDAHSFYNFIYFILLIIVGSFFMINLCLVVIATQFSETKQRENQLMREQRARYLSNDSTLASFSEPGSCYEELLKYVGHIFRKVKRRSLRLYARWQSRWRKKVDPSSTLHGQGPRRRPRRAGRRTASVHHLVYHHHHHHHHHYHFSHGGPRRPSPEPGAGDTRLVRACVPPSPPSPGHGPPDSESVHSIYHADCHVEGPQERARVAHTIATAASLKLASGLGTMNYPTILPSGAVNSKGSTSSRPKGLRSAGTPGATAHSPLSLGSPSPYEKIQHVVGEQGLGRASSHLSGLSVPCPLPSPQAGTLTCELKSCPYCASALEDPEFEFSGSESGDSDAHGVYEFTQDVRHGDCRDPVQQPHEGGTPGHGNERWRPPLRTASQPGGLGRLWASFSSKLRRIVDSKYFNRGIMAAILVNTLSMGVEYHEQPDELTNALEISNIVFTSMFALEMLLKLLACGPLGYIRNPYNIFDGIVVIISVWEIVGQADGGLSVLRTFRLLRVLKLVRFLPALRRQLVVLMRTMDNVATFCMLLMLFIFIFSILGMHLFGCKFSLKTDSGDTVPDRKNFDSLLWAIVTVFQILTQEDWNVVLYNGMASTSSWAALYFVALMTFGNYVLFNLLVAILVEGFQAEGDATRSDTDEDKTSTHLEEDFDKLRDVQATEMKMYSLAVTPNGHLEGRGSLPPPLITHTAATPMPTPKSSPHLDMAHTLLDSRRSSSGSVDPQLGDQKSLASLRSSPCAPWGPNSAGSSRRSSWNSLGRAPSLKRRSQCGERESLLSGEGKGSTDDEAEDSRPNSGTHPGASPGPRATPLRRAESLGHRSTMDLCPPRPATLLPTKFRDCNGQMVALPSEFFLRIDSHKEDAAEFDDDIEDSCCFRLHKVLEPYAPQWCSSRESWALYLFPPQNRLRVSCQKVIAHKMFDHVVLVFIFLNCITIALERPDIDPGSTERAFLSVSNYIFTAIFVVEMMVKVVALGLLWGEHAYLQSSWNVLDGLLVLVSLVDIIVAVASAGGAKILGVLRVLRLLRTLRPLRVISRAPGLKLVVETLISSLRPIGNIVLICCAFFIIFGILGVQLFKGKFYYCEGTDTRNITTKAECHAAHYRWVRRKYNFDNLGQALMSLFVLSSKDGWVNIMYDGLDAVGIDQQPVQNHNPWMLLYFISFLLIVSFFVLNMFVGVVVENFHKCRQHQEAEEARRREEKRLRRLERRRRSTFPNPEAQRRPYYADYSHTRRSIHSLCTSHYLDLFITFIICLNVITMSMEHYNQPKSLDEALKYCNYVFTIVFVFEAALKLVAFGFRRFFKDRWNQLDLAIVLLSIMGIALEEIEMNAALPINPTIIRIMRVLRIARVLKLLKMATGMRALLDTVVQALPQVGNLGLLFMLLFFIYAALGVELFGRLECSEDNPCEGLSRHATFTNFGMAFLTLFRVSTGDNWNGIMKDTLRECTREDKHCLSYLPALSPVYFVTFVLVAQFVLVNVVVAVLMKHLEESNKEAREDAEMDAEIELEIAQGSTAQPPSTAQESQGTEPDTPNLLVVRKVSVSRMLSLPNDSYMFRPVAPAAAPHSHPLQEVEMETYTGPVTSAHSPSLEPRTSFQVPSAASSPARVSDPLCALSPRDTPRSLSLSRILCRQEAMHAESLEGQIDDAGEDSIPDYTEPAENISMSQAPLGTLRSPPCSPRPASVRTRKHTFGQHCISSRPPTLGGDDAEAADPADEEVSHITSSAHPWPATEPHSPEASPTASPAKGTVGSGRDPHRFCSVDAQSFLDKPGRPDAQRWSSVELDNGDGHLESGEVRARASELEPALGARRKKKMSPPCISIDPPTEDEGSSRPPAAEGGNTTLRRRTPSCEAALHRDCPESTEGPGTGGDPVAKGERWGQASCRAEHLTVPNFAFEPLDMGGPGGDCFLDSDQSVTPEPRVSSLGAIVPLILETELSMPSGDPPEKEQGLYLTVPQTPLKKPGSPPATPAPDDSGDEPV
UniProt Q61056: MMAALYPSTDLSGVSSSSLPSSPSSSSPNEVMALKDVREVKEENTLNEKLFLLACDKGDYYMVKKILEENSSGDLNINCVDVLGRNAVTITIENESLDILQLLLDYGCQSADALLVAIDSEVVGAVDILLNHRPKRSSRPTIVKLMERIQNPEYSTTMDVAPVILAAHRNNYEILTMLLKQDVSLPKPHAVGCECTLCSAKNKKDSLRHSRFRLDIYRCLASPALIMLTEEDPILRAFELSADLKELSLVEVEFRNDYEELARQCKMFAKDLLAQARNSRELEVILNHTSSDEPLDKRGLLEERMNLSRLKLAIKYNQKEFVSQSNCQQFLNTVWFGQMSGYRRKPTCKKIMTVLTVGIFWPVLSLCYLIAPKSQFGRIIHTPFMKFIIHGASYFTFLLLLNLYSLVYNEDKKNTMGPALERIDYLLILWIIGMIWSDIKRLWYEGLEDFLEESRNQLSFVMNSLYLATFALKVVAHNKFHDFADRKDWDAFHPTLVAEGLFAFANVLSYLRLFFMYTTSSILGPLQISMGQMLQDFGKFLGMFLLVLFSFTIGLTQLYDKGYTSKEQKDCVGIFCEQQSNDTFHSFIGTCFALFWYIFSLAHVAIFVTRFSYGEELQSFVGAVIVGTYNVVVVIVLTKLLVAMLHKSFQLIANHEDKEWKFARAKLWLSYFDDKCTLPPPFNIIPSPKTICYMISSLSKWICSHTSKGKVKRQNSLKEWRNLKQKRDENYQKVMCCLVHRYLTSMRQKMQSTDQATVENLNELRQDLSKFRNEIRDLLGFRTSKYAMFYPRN

What was measured:
[1] = target: TRPC5 channel (Transient Receptor Potential Cation channel 5) (mouse (endogenous in brain and hypothalamus)) (UniProt Q9QX29); experiment: co-IP; adult mouse whole brain and hypothalamus homogenates; primary antibody (α1G, α1H, TRPC5, TRPC1 or control IgG) at 4°C, protein A/G agarose beads, elution in 0.1 M glycine pH 3.5, Western blot; n = 3
[2] = target: CaV3.2 (α1H) T-type calcium channel (mouse (endogenous in brain and hypothalamus)) (UniProt O88427); experiment: as above

Row | binding [1] | binding [2] | Substance
1 | binds | – | CaV3.2 (α1H) T-type calcium channel (from UniProt O88427 1-2365)
2 | binds | binds | TRPC1 channel (Transient Receptor Potential Cation channel 1) (from UniProt Q61056 1-793)
3 | – | binds | TRPC5 channel (Transient Receptor Potential Cation channel 5) (from UniProt Q9QX29 1-975)
